Data reported in the supplement of paper PMC10849652.
The list shows a part of the results.

Amino acid sequences for entries named in this document (tags omitted). A change or cut given only in a name is not applied to a line headed by its entry.
UniProt Q14289, whole entry, looked up: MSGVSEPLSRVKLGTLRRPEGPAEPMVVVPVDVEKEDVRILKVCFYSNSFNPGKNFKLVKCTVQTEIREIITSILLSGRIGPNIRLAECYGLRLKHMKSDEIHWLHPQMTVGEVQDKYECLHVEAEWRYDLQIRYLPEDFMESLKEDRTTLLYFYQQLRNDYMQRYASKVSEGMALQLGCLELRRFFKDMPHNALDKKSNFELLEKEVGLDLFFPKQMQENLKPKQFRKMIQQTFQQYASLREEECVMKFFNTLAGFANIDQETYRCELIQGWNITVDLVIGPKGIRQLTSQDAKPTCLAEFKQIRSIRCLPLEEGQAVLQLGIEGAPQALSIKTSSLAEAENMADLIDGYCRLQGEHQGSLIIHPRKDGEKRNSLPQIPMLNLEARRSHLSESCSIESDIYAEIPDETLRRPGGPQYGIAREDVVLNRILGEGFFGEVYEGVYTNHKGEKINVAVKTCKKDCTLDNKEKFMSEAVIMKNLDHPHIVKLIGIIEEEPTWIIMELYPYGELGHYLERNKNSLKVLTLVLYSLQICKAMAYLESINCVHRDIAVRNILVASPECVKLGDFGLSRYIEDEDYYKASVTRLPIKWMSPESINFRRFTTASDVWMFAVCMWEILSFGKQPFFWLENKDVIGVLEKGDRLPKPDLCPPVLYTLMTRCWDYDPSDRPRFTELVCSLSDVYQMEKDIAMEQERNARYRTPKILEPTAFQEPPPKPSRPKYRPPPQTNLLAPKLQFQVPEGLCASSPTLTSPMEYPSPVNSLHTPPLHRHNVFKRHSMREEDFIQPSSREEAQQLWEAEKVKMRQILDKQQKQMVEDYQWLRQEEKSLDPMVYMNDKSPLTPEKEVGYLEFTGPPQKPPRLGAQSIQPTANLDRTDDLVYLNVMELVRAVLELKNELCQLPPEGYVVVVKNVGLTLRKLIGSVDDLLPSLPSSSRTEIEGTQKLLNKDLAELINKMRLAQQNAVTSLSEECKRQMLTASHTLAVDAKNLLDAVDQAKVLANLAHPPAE
UniProt Q9H7Z7: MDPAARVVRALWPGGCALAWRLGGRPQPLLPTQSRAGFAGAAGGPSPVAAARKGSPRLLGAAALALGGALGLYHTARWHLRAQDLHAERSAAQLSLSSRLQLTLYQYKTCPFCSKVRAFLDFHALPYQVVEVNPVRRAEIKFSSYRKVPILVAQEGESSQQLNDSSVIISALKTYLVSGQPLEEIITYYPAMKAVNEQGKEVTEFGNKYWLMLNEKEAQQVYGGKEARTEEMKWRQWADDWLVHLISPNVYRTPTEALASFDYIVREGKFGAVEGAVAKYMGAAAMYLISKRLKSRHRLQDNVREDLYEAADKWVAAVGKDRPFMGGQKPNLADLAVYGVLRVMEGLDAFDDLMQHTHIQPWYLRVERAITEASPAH
UniProt Q9UL46, whole entry, looked up: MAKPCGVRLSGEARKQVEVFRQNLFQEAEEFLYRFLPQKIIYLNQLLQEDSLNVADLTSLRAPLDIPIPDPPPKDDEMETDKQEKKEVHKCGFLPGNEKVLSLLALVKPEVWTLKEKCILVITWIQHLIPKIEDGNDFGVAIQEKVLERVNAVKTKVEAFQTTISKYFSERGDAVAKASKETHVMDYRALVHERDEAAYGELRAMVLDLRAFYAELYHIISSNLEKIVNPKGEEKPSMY
UniProt Q14558: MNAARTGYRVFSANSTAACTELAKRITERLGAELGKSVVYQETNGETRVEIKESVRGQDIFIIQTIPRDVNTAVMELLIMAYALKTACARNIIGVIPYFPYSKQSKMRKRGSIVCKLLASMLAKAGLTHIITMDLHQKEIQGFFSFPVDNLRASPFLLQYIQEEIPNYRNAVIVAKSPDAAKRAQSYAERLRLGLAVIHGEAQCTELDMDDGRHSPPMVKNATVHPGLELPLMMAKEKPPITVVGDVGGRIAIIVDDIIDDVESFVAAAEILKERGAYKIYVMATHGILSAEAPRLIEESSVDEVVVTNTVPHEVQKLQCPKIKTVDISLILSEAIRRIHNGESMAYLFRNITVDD
UniProt Q9Y617: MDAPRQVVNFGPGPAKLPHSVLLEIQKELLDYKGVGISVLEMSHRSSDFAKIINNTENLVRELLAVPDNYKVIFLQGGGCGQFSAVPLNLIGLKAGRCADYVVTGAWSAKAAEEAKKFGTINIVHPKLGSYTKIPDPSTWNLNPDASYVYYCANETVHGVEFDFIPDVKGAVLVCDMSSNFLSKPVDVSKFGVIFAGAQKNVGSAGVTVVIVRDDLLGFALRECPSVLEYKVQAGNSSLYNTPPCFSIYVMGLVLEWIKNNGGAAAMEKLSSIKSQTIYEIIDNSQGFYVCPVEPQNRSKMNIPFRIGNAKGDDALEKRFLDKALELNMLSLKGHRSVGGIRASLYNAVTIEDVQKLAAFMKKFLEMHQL
UniProt Q9H939: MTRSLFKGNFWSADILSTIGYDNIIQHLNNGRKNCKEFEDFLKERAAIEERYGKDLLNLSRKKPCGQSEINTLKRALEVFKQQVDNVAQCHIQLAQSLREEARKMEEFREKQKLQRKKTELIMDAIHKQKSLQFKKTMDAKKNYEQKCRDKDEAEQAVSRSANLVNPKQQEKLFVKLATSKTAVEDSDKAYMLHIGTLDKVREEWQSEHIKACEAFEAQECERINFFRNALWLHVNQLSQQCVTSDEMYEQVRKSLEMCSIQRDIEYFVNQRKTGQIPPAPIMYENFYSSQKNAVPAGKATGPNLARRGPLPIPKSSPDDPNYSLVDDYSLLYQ
UniProt P25788: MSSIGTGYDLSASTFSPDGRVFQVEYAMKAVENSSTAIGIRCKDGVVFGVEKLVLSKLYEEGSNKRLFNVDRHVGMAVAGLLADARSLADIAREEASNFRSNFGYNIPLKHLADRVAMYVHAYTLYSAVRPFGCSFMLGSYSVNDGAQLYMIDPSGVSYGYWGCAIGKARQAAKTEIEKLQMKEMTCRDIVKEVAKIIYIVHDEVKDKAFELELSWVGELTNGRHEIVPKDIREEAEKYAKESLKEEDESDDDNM
UniProt Q9P2B2: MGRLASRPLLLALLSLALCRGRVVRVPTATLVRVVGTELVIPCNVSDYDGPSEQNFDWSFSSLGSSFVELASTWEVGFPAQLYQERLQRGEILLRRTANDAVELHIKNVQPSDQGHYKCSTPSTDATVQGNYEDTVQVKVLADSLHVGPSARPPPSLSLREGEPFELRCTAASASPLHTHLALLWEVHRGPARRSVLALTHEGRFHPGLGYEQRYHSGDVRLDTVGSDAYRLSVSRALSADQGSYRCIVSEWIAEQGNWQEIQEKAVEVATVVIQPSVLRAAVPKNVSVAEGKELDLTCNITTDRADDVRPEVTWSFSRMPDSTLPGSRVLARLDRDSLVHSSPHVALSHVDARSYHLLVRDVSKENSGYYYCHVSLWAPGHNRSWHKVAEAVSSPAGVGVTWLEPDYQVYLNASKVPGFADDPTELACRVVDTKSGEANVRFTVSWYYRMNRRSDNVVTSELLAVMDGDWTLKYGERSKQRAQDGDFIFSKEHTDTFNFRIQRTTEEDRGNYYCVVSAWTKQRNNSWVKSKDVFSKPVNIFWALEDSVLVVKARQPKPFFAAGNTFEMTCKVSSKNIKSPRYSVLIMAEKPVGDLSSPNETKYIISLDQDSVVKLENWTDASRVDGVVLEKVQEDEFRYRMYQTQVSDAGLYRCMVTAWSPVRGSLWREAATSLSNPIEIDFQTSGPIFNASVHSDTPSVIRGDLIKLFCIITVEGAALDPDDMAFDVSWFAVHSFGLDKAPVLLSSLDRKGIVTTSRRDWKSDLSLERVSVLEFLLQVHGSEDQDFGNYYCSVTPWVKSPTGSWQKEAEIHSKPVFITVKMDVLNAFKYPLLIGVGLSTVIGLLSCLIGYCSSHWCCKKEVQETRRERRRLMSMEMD
UniProt Q9P2W1: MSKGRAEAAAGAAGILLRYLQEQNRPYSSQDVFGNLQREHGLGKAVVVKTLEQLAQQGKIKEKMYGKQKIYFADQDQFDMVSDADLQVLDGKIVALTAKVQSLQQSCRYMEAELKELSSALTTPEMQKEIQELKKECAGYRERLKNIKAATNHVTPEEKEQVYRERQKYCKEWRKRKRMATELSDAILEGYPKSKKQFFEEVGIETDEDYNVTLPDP
UniProt Q8NDX1: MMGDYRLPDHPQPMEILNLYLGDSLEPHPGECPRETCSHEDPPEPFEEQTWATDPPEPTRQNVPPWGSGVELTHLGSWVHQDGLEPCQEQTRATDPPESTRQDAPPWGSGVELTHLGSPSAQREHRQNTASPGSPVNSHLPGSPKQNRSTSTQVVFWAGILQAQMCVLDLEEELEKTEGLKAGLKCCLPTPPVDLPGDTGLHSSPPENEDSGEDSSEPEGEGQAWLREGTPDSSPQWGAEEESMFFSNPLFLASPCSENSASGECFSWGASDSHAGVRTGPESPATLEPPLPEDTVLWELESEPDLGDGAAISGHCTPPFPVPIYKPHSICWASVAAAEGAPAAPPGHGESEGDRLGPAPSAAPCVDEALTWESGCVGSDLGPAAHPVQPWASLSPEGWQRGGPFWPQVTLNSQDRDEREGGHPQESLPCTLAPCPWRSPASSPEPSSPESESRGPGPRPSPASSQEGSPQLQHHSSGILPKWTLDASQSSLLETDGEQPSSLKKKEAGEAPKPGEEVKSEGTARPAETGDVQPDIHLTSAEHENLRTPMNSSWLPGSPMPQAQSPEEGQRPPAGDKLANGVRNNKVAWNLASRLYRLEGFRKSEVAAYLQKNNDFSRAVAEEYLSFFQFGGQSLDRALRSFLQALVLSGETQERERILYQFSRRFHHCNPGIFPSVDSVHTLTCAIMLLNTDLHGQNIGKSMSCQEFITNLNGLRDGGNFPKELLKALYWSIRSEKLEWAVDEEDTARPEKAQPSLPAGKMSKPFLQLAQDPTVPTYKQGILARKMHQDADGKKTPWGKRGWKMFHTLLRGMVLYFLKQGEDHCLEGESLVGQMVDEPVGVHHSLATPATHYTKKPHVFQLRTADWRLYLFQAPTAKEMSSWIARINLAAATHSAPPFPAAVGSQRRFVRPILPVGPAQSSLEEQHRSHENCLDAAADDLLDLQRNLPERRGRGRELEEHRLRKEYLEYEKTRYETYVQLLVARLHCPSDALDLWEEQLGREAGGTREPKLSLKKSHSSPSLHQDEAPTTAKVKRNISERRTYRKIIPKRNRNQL
UniProt P11908: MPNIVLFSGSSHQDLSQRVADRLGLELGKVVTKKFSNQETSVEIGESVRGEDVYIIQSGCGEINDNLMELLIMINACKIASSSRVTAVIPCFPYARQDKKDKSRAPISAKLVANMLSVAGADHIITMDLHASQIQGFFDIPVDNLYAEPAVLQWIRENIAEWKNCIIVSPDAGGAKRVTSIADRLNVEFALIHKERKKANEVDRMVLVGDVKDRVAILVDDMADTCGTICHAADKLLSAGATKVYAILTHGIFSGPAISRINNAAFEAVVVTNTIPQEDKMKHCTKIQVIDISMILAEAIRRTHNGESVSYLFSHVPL
UniProt P51665: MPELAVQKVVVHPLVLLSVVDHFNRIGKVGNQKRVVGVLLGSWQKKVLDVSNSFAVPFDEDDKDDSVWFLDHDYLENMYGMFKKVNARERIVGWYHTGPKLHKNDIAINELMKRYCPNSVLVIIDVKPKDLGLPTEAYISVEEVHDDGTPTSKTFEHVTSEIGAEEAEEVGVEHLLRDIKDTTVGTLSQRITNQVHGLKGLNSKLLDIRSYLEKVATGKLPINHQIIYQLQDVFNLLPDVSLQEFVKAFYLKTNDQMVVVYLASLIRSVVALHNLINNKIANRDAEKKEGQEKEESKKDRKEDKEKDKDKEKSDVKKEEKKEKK
UniProt P43686, whole entry, looked up: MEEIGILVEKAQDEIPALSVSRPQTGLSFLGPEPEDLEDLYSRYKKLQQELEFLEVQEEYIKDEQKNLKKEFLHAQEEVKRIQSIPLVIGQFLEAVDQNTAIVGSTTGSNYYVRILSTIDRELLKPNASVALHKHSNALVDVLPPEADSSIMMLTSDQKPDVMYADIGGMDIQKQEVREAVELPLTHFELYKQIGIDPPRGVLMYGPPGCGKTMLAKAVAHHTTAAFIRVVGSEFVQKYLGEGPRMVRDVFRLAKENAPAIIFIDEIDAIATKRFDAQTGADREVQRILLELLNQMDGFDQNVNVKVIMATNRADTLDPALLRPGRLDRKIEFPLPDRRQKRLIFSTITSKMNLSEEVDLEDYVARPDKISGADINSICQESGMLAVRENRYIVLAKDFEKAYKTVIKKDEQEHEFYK
UniProt O95997: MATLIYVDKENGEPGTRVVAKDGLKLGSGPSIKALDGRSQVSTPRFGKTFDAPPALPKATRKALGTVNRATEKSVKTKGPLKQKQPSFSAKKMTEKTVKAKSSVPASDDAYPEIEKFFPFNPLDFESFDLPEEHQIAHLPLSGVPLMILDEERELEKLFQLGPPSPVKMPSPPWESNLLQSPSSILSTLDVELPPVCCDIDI

Legend:
Assay in all cases: log2 fold change, soluble protein after heating vs DMSO (PISA); higher = thermal stabilisation; K562 lysate, 10 uM; active = over 0.2 and 3.5 SD of the protein, either way, in both replicates (recomputed)
erlotinib = compound: C#Cc1cccc(Nc2ncnc3cc(OCCOC)c(OCCOC)cc23)c1 [erlotinib]
Procedure, shortened: (§1)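 Log-two fold change in thermal stability relative to solvent controls is reported from duplicates. For each sample, crude K562 extract from dounce-homogenised pellets in PBS pH 7.4 with 1 mM MgCl2, at 1 mg/mL protein, was treated with 10 μM compound for 30 min. Aliquots heated for 3 min across 48°C-58°C were pooled, brought to 0.5% NP-40 at 4°C and cleared at 21,000xg for 90 min. The supernatant was quantified by TMTpro 16plex LC-MS/MS with channel sums equalised.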

[1] = compound: C/C(=N\NC(=O)C1=CC(=CC=C1)S(=O)(=O)N2CCOCC2)/C3=C(C=CC(=C3)Cl)O
Procedure, shortened: as §1

[2] = compound: C1=CC(=CC=C1C2=NC3=C(N2)C=C(C=C3)C(=O)N)OC4=CC=C(C=C4)Cl
Procedure, shortened: as §1

[3] = compound: C1=CC2=C(C=CC(=C2)/C=C\3/C(=O)NC(=NCC4=CC=CS4)S3)N=C1
Procedure, shortened: as §1

[4] = compound: C1=CC2=NC=CN=C2C=C1/C=C/3\C(=O)NC(=O)S3
Procedure, shortened: as §1

[5] = compound: C1=CC=C(C=C1)C2=NC(=C(N2)C3=CC=NC=C3)C4=CC(=C(C=C4)Cl)O
Procedure, shortened: as §1

[6] = compound: C1=CC=C2C(=C1)C3=NNC4=CC=CC(=C43)C2=O
Procedure, shortened: as §1

[7] = compound: C1CCN(C1)C(=O)NC2=CC=CC(=C2)NC3=NC=C(C(=N3)NCCC4=CN=CN4)Br
Procedure, shortened: as §1

[8] = compound: C1CN(CCC1(CC2=CC=C(C=C2)Cl)N)C3=NC=NC4=C3C=CN4
Procedure, shortened: as §1

IRAK-1-4 Inhibitor I = compound: C1COCCN1CCN2C3=CC=CC=C3N=C2NC(=O)C4=CC(=CC=C4)[N+](=O)[O-] [IRAK-1-4 Inhibitor I]
Procedure, shortened: as §1

ibrutinib = compound: C=CC(=O)N1CCC[C@@H](n2nc(-c3ccc(Oc4ccccc4)cc3)c3c(N)ncnc32)C1 [ibrutinib]
Procedure, shortened: as §1

[9] = compound: CC(=O)c1cnc2ccc(-c3cc(Cl)c(O)c(Cl)c3)nc2c1N[C@H]1CC[C@H](CN(C)C)CC1
Procedure, shortened: as §1

ralimetinib = compound: CC(C)(C)Cn1c(N)nc2ccc(-c3[nH]c(C(C)(C)C)nc3-c3ccc(F)cc3)nc21 [ralimetinib]
Procedure, shortened: as §1

[10] = compound: CC(C)(O)CC(=O)NCCn1ccc2ncnc(Nc3ccc(Oc4cccc(C(F)(F)F)c4)c(Cl)c3)c21
Procedure, shortened: as §1

[11] = compound: CC(C)C1=C2N=C(C=C(N2N=C1)NCC3=CC=CC=C3)NCCCCCCN
Procedure, shortened: as §1

[12] = compound: CC1=C(C(CC(=O)N1)C2=CC=C(C=C2)C(F)(F)F)C(=O)NC3=C(C=C4C(=C3)C=NN4)F
Procedure, shortened: as §1

[13] = compound: CC1=C(C2=C(C=C1)C(=O)C3=CC=CC=C3N2CCCN)C
Procedure, shortened: as §1

[14] = compound: CC1=C(C=C(C=C1)NC(=O)C2=CC(=CC=C2)C(C)(C)C#N)NC3=CC4=C(C=C3)N=CN(C4=O)C
Procedure, shortened: as §1

[15] = compound: CC1=C(C=C(C=C1)NC(=O)C2=CC(=CC=C2)N(C)C)NC(=O)C3=CC=C(C=C3)O
Procedure, shortened: as §1

[16] = compound: CC1=CC=C(C=C1)SC2=C3C=C(SC3=CN=C2)C(=O)N
Procedure, shortened: as §1

Target | log2 fold change (erlotinib) | log2 fold change [1] | log2 fold change [2] | log2 fold change [3] | log2 fold change [4] | log2 fold change [5] | log2 fold change [6] | log2 fold change [7] | log2 fold change [8] | log2 fold change (IRAK-1-4 Inhibitor I) | log2 fold change (ibrutinib) | log2 fold change [9] | log2 fold change (ralimetinib) | log2 fold change [10] | log2 fold change [11] | log2 fold change [12] | log2 fold change [13] | log2 fold change [14] | log2 fold change [15] | log2 fold change [16]
PRRC2A (UniProt P48634) | inactive: -0.026 | inactive: -0.018 | inactive: 0.073 | inactive: -0.002 | inactive: 0.006 | inactive: -0.09 | inactive: 0.014 | inactive: 0.01 | inactive: 0.006 | inactive: 0.026 | inactive: 0.006 | inactive: -0.014 | inactive: -0.01 | inactive: -0.02 | inactive: 0.002 | inactive: 0.015 | inactive: -0.003 | active: -0.26 | inactive: 0.003 | inactive: -0.026
PTK2B (UniProt Q14289) | inactive: 0.024 | inactive: -0.012 | inactive: 0.001 | inactive: -0.012 | inactive: -0.053 | inactive: 0.027 | inactive: 0.066 | inactive: 0.067 | inactive: -0.068 | inactive: 0.077 | inactive: 0.014 | inactive: 0.073 | inactive: -0.04 | inactive: -0.072 | inactive: -0.005 | inactive: -0.039 | inactive: -0.001 | inactive: -0.049 | inactive: 0.013 | inactive: -0.022
PTGES2 (UniProt Q9H7Z7) | inactive: 0.008 | inactive: 0.056 | inactive: -0.133 | inactive: 0.066 | inactive: -0.054 | inactive: 0.174 | inactive: 0.162 | inactive: 0.028 | inactive: -0.023 | inactive: 0.161 | inactive: -0.035 | inactive: -0.092 | inactive: -0.004 | inactive: 0.167 | inactive: 0.132 | inactive: -0.029 | inactive: -0.002 | inactive: 0.001 | inactive: -0.082 | inactive: 0.036
PSME2 (UniProt Q9UL46) | inactive: -0.024 | inactive: -0.022 | inactive: -0.001 | inactive: 0.007 | inactive: 0.014 | inactive: -0.012 | inactive: -0.036 | inactive: -0.01 | inactive: 0.029 | inactive: 0.034 | inactive: -0.004 | inactive: -0.01 | inactive: 0.025 | inactive: -0.036 | inactive: -0.004 | inactive: -0.007 | inactive: 0 | inactive: 0.004 | inactive: 0.025 | inactive: -0.023
PRPSAP1 isoform 2 (UniProt Q14558) | inactive: 0.006 | inactive: -0.052 | inactive: 0.039 | inactive: 0.007 | inactive: 0.01 | inactive: 0.001 | inactive: -0.043 | inactive: -0.008 | inactive: 0.021 | inactive: -0.001 | inactive: -0.019 | inactive: 0.009 | inactive: -0.007 | inactive: -0.066 | inactive: 0.007 | inactive: -0.011 | inactive: 0 | inactive: -0.017 | inactive: 0.018 | inactive: 0
PSAT1 (UniProt Q9Y617) | inactive: -0.011 | inactive: 0.009 | inactive: 0.023 | inactive: -0.001 | inactive: 0.003 | inactive: 0.007 | inactive: -0.008 | inactive: -0.022 | inactive: 0.018 | inactive: 0.015 | inactive: -0.048 | inactive: -0.054 | inactive: -0.004 | inactive: 0.025 | inactive: 0.005 | inactive: -0.028 | inactive: 0.006 | inactive: -0.011 | inactive: -0.026 | inactive: -0.018
PRPF8 (UniProt Q6P2Q9) | inactive: 0.01 | inactive: 0.02 | inactive: -0.017 | inactive: 0.005 | inactive: -0.01 | inactive: 0.007 | inactive: -0.018 | inactive: 0.008 | inactive: 0.006 | inactive: -0.011 | inactive: -0.017 | inactive: -0.003 | inactive: 0.019 | inactive: -0.005 | inactive: -0.024 | inactive: -0.011 | inactive: 0.006 | inactive: 0 | inactive: 0.008 | inactive: 0.012
PSTPIP2 (UniProt Q9H939) | inactive: 0.002 | inactive: 0.05 | inactive: -0.028 | inactive: 0.055 | inactive: -0.031 | inactive: -0.003 | inactive: -0.122 | inactive: 0.01 | inactive: 0.005 | inactive: 0.009 | inactive: -0.019 | inactive: -0.037 | inactive: -0.024 | inactive: 0.012 | inactive: 0.001 | inactive: -0.049 | inactive: -0.037 | inactive: 0.022 | inactive: -0.001 | inactive: -0.034
PSMA3 (UniProt P25788) | inactive: -0.03 | inactive: 0.032 | inactive: -0.016 | inactive: 0.011 | inactive: -0.011 | inactive: 0.002 | inactive: 0.032 | inactive: 0.02 | inactive: -0.029 | inactive: -0.025 | inactive: 0.036 | inactive: 0.011 | inactive: 0 | inactive: 0.008 | inactive: -0.017 | inactive: -0.023 | inactive: -0.047 | inactive: -0.015 | inactive: -0.003 | inactive: 0.006
PTGFRN (UniProt Q9P2B2) | inactive: 0.016 | inactive: -0.026 | inactive: 0.04 | inactive: 0.029 | inactive: -0.027 | inactive: 0.008 | inactive: -0.01 | inactive: 0.008 | inactive: -0.01 | inactive: 0.011 | inactive: -0.008 | inactive: -0.008 | inactive: -0.004 | inactive: -0.041 | inactive: -0.063 | inactive: -0.005 | inactive: 0.001 | inactive: 0.015 | inactive: -0.018 | inactive: 0.001
PSMC3IP (UniProt Q9P2W1) | inactive: -0.008 | inactive: 0.005 | inactive: -0.006 | inactive: -0.056 | inactive: 0.03 | inactive: 0.011 | inactive: 0.019 | inactive: -0.01 | inactive: 0.014 | inactive: -0.004 | inactive: -0.041 | inactive: 0.044 | inactive: 0.058 | inactive: 0.015 | inactive: -0.029 | inactive: -0.014 | inactive: -0.036 | inactive: -0.029 | inactive: 0.039 | inactive: -0.027
PSD4 (UniProt Q8NDX1) | inactive: 0 | inactive: -0.073 | inactive: -0.026 | inactive: 0.015 | inactive: -0.022 | inactive: -0.027 | inactive: -0.033 | inactive: 0.016 | inactive: -0.007 | inactive: -0.024 | inactive: -0.014 | inactive: 0.017 | inactive: 0.055 | inactive: -0.012 | inactive: 0.006 | inactive: 0.015 | inactive: 0.01 | inactive: 0.024 | inactive: 0.042 | inactive: 0.036
PRPS2 isoform 2 (UniProt P11908) | inactive: 0 | inactive: 0.005 | inactive: -0.039 | inactive: -0.028 | inactive: 0.025 | inactive: -0.006 | inactive: 0.024 | inactive: 0.002 | inactive: 0.016 | inactive: 0.007 | inactive: -0.009 | inactive: 0.036 | inactive: 0.038 | inactive: 0.019 | inactive: -0.033 | inactive: -0.015 | inactive: 0.021 | inactive: 0 | inactive: -0.033 | inactive: 0.008
PSMD7 (UniProt P51665) | inactive: -0.003 | inactive: -0.087 | inactive: 0.02 | inactive: 0.006 | inactive: -0.035 | inactive: -0.004 | inactive: -0.016 | inactive: -0.012 | inactive: 0.007 | inactive: 0.003 | inactive: -0.023 | inactive: -0.01 | inactive: 0.003 | inactive: -0.044 | inactive: -0.011 | inactive: 0.011 | inactive: 0.003 | inactive: -0.001 | inactive: 0 | inactive: 0.019
PSMC4 (UniProt P43686) | inactive: 0.012 | inactive: 0.008 | inactive: -0.012 | inactive: 0.008 | inactive: -0.012 | inactive: 0.015 | inactive: -0.023 | inactive: -0.007 | inactive: -0.022 | inactive: 0.003 | inactive: -0.016 | inactive: 0.003 | inactive: 0.024 | inactive: 0 | inactive: 0.003 | inactive: -0.017 | inactive: 0 | inactive: -0.003 | inactive: -0.001 | inactive: 0.019
PTTG1 (UniProt O95997) | inactive: -0.036 | inactive: -0.12 | inactive: -0.162 | inactive: -0.006 | inactive: -0.113 | inactive: 0.071 | inactive: -0.022 | inactive: 0.005 | inactive: 0.044 | inactive: -0.02 | inactive: 0.021 | inactive: 0.022 | inactive: -0.02 | inactive: -0.063 | inactive: 0.017 | inactive: -0.039 | inactive: -0.006 | inactive: 0.099 | inactive: -0.038 | inactive: 0.059

Two entries from above, in CSV form:
Target,log2 fold change (erlotinib),log2 fold change [1],log2 fold change [2],log2 fold change [3],log2 fold change [4],log2 fold change [5],log2 fold change [6],log2 fold change [7],log2 fold change [8],log2 fold change (IRAK-1-4 Inhibitor I),log2 fold change (ibrutinib),log2 fold change [9],log2 fold change (ralimetinib),log2 fold change [10],log2 fold change [11],log2 fold change [12],log2 fold change [13],log2 fold change [14],log2 fold change [15],log2 fold change [16]
PSMC3IP (UniProt Q9P2W1),inactive: -0.008,inactive: 0.005,inactive: -0.006,inactive: -0.056,inactive: 0.03,inactive: 0.011,inactive: 0.019,inactive: -0.01,inactive: 0.014,inactive: -0.004,inactive: -0.041,inactive: 0.044,inactive: 0.058,inactive: 0.015,inactive: -0.029,inactive: -0.014,inactive: -0.036,inactive: -0.029,inactive: 0.039,inactive: -0.027
PSD4 (UniProt Q8NDX1),inactive: 0,inactive: -0.073,inactive: -0.026,inactive: 0.015,inactive: -0.022,inactive: -0.027,inactive: -0.033,inactive: 0.016,inactive: -0.007,inactive: -0.024,inactive: -0.014,inactive: 0.017,inactive: 0.055,inactive: -0.012,inactive: 0.006,inactive: 0.015,inactive: 0.01,inactive: 0.024,inactive: 0.042,inactive: 0.036
